Reference: article doi:10.1101/2022.07.15.500188
Results are given in words; binding and its absence hold for the method and conditions named. In cells and extracts the contact can be indirect. A yes stands for co-enrichment or nearness to the bait. Other partners may have been found. Tags and fused reporters may be left off the sequences shown.

Protein sequences, listed by entry. Tags and fused reporters are not part of them.
UniProt Q9H4L4: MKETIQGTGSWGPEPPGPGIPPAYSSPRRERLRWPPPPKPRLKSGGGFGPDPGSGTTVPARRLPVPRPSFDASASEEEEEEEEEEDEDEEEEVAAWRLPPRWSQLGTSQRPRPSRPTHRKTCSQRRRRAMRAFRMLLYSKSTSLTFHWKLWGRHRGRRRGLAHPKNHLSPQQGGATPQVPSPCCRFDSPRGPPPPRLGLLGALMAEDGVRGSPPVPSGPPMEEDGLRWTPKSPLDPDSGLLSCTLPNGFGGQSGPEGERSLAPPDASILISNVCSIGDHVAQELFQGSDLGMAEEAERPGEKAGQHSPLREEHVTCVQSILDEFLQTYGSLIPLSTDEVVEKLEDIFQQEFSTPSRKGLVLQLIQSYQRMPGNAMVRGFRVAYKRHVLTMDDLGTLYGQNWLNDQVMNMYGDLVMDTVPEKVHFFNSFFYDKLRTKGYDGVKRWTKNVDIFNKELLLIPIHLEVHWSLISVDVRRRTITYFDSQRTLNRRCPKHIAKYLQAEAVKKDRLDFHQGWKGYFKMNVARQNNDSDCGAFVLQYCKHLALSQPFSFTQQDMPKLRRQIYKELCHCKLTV
UniProt Q8IZL8: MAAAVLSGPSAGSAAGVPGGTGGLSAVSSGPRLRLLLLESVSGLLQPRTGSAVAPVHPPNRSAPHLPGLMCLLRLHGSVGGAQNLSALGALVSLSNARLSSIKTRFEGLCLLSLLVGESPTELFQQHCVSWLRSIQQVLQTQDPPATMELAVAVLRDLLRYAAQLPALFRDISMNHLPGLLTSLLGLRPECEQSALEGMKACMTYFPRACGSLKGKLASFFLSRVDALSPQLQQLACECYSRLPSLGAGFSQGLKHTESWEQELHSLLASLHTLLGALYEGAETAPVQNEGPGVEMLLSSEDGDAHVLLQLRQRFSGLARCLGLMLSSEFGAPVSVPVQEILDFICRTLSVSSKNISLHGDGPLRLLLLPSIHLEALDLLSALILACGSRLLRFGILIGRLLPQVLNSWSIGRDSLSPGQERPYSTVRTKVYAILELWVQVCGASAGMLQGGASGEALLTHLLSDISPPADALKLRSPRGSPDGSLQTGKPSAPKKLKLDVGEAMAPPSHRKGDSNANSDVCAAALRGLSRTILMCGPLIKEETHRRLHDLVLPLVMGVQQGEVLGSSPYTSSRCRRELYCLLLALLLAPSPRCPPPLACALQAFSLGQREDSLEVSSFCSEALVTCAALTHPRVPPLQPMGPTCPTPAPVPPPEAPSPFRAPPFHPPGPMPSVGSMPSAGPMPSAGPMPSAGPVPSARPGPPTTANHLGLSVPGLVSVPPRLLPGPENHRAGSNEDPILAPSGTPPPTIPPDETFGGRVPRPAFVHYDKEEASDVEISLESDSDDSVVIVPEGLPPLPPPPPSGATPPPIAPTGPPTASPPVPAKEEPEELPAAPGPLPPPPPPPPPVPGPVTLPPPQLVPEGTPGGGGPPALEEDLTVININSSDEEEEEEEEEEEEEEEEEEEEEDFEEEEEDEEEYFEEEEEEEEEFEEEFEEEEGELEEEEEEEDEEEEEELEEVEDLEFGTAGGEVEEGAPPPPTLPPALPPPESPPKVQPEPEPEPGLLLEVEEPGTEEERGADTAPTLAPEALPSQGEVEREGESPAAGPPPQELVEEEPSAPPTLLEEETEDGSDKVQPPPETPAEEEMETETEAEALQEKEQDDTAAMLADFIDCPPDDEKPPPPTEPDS

T1: HMGN5-GFP (human HMGN5 with C-terminal GFP, HMGN5-FlpIn cell line) (human) (UniProt P82970)
T1 sequence: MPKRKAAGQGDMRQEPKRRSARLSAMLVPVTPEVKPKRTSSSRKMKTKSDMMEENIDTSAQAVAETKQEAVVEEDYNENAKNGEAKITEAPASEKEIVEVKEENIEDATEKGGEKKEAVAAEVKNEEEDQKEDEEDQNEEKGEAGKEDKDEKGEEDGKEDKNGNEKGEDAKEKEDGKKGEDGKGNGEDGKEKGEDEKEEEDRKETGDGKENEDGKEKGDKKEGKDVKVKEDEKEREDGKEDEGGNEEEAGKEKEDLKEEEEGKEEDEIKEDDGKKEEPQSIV

B1: CTCF (protein, UniProt P49711 1-727)
chain: MEGDAVEAIVEESETFIKGKERKTYQRRREGGQEEDACHLPQNQTDGGEVVQDVNSSVQMVMMEQLDPTLLQMKTEVMEGTVAPEAEAAVDDTQIITLQVVNMEEQPINIGELQLVQVPVPVTVPVATTSVEELQGAYENEVSKEGLAESEPMICHTLPLPEGFQVVKVGANGEVETLEQGELPPQEDPSWQKDPDYQPPAKKTKKTKKSKLRYTEEGKDVDVSVYDFEEEQQEGLLSEVNAEKVVGNMKPPKPTKIKKKGVKKTFQCELCSYTCPRRSNLDRHMKSHTDERPHKCHLCGRAFRTVTLLRNHLNTHTGTRPHKCPDCDMAFVTSGELVRHRRYKHTHEKPFKCSMCDYASVEVSKLKRHIRSHTGERPFQCSLCSYASRDTYKLKRHMRTHSGEKPYECYICHARFTQSGTMKMHILQKHTENVAKFHCPHCDTVIARKSDLGVHLRKQHSYIEQGKKCRYCDAVFHERYALIQHQKSHKNEKRFKCDQCDYACRQERHMIMHKRTHTGEKPYACSHCDKTFRQKQLLDMHFKRYHDPNFVPAAFVCSKCGKTFTRRNTMARHADNCAGPDGVEGENGGETKKSKRGRKRKMRSKKEDSSDSENAEPDLDDNEDEEEPAVEIEPEPEPQPVTPAPPPAKKRRGRPPGRTNQPKQNQPTAIIQVEDQNTGAIENIIVEVKKEPDAEPAEGEEEEAQPAATDAPNGDLTPEMILSMMDR
B2: LAS1 (protein, UniProt Q9Y4W2 1-734)
chain: MSWESGAGPGLGSQGMDLVWSAWYGKCVKGKGSLPLSAHGIVVAWLSRAEWDQVTVYLFCDDHKLQRYALNRITVWRSRSGNELPLAVASTADLIRCKLLDVTGGLGTDELRLLYGMALVRFVNLISERKTKFAKVPLKCLAQEVNIPDWIVDLRHELTHKKMPHINDCRRGCYFVLDWLQKTYWCRQLENSLRETWELEEFREGIEEEDQEEDKNIVVDDITEQKPEPQDDGKSTESDVKADGDSKGSEEVDSHCKKALSHKELYERARELLVSYEEEQFTVLEKFRYLPKAIKAWNNPSPRVECVLAELKGVTCENREAVLDAFLDDGFLVPTFEQLAALQIEYEDGQTEVQRGEGTDPKSHKNVDLNDVLVPKPFSQFWQPLLRGLHSQNFTQALLERMLSELPALGISGIRPTYILRWTVELIVANTKTGRNARRFSAGQWEARRGWRLFNCSASLDWPRMVESCLGSPCWASPQLLRIIFKAMGQGLPDEEQEKLLRICSIYTQSGENSLVQEGSEASPIGKSPYTLDSLYWSVKPASSSFGSEAKAQQQEEQGSVNDVKEEEKEEKEVLPDQVEEEEENDDQEEEEEDEDDEDDEEEDRMEVGPFSTGQESPTAENARLLAQKRGALQGSAWQVSSEDVRWDTFPLGRMPGQTEDPAELMLENYDTMYLLDQPVLEQRLEPSTCKTDTLGLSCGVGSGNCSNSSSSNFEGLLWSQGQLHGLKTGLQLF
B3: TEX10 (protein, UniProt Q9NXF1 1-929)
chain: MTKKRKRQHDFQKVKLKVGKKKPKLQNATPTNFKTKTIHLPEQLKEDGTLPTNNRKLNIKDLLSQMHHYNAGVKQSALLGLKDLLSQYPFIIDAHLSNILSEVTAVFTDKDANVRLAAVQLLQFLAPKIRAEQISPFFPLVSAHLSSAMTHITEGIQEDSLKVLDILLEQYPALITGRSSILLKNFVELISHQQLSKGLINRDRSQSWILSVNPNRRLTSQQWRLKVLVRLSKFLQALADGSSRLRESEGLQEQKENPHATSNSIFINWKEHANDQQHIQVYENGGSQPNVSSQFRLRYLVGGLSGVDEGLSSTENLKGFIEIIIPLLIECWVEAVPPQLATPVGNGIEREPLQVMQQVLNIISLLWKLSKQQDETHKLESWLRKNYLIDFKHHFMSRFPYVLKEITKHKRKEPNKSIKHCTVLSNNIDHLLLNLTLSDIMVSLANASTLQKDCSWIEMIRKFVTETLEDGSRLNSKQLNRLLGVSWRLMQIQPNREDTETLIKAVYTLYQQRGLILPVRTLLLKFFSKIYQTEELRSCRFRYRSKVLSRWLAGLPLQLAHLGSRNPELSTQLIDIIHTAAARANKELLKSLQATALRIYDPQEGAVVVLPADSQQRLVQLVYFLPSLPADLLSRLSRCCIMGRLSSSLAAMLIGILHMRSSFSGWKYSAKDWLMSDVDYFSFLFSTLTGFSKEELTWLQSLRGVPHVIQTQLSPVLLYLTDLDQFLHHWDVTEAVFHSLLVIPARSQNFDILQSAISKHLVGLTVIPDSTAGCVFGVICKLLDHTCVVSETLLPFLASCCYSLLYFLLTIEKGEAEHLRKRDKLWGVCVSILALLPRVLRLMLQSLRVNRVGPEELPVVGQLLRLLLQHAPLRTHMLTNAILVQQIIKNITTLKSGSVQEQWLTDLHYCFNVYITGHPQGPSALATVY
B4: WDR18 (protein, UniProt Q9BV38 1-432)
chain: MAAPMEVAVCTDSAAPMWSCIVWELHSGANLLTYRGGQAGPRGLALLNGEYLLAAQLGKNYISAWELQRKDQLQQKIMCPGPVTCLTASPNGLYVLAGVAESIHLWEVSTGNLLVILSRHYQDVSCLQFTGDSSHFISGGKDCLVLVWSLCSVLQADPSRIPAPRHVWSHHALPITDLHCGFGGPLARVATSSLDQTVKLWEVSSGELLLSVLFDVSIMAVTMDLAEHHMFCGGSEGSIFQVDLFTWPGQRERSFHPEQDAGKVFKGHRNQVTCLSVSTDGSVLLSGSHDETVRLWDVQSKQCIRTVALKGPVTNAAILLAPVSMLSSDFRPSLPLPHFNKHLLGAEHGDEPRHGGLTLRLGLHQQGSEPSYLDRTEQLQAVLCSTMEKSVLGGQDQLRVRVTELEDEVRNLRKINRDLFDFSTRFITRPAK
B5: NOL9 (protein, UniProt Q5SY16 1-702)
chain: MADSGLLLKRGSCRSTWLRVRKARPQLILSRRPRRRLGSLRWCGRRRLRWRLLQAQASGVDWREGARQVSRAAAARRPNTATPSPIPSPTPASEPESEPELESASSCHRPLLIPPVRPVGPGRALLLLPVEQGFTFSGICRVTCLYGQVQVFGFTISQGQPAQDIFSVYTHSCLSIHALHYSQPEKSKKELKREARNLLKSHLNLDDRRWSMQNFSPQCSIVLLEHLKTATVNFITSYPGSSYIFVQESPTPQIKPEYLALRSVGIRREKKRKGLQLTESTLSALEELVNVSCEEVDGCPVILVCGSQDVGKSTFNRYLINHLLNSLPCVDYLECDLGQTEFTPPGCISLLNITEPVLGPPFTHLRTPQKMVYYGKPSCKNNYENYIDIVKYVFSAYKRESPLIVNTMGWVSDQGLLLLIDLIRLLSPSHVVQFRSDHSKYMPDLTPQYVDDMDGLYTKSKTKMRNRRFRLAAFADALEFADEEKESPVEFTGHKLIGVYTDFAFRITPRNRESHNKILRDLSILSYLSQLQPPMPKPLSPLHSLTPYQVPFNAVALRITHSDVAPTHILYAVNASWVGLCKIQDDVRGYTNGPILLAQTPICDCLGFGICRGIDMEKRLYHILTPVPPEELRTVNCLLVGAIAIPHCVLKCQRGIEGTVPYVTTDYNFKLPGASEKIGAREPEEAHKEKPYRRPKFCRKMK

These molecules were tested against T1, HMGN5-GFP (human HMGN5 with C-terminal GFP, HMGN5-FlpIn cell line) (human) (assay: affinity purification with mass spectrometry).

| Molecule | binding |
| --- | --- |
| SENP3 (from UniProt Q9H4L4 1-574) | binds |
| PELP1 (from UniProt Q8IZL8 1-1130) | binds |

Target: T1, HMGN5-GFP (human HMGN5 with C-terminal GFP, HMGN5-FlpIn cell line) (human)
Assay: affinity purification with mass spectrometry
Remark: another data set of the same source

| Molecule | binding |
| --- | --- |
| B1 | binds |
| B2 | binds |
| B3 | binds |
| B4 | binds |
| B5 | binds |
